Numbering of substitutions follows the chain as printed. These are yes or no findings as the source states them, for the method shown. Binding seen in cells or lysates may run through a third protein. Some results given as binding are weak or reduced against the parent protein; the word gives no strength.
What was measured:
[1] = target: T1, CRY1 (wild type, co-IP of Figure 4D–F) (mouse) (UniProt P97784); assay: co-IP; CRY1 wild type or R109Q with CLOCK-BMAL1, PER1 or PER2 (Figure 4D–F); cells, tags and bait not told
T1 sequence: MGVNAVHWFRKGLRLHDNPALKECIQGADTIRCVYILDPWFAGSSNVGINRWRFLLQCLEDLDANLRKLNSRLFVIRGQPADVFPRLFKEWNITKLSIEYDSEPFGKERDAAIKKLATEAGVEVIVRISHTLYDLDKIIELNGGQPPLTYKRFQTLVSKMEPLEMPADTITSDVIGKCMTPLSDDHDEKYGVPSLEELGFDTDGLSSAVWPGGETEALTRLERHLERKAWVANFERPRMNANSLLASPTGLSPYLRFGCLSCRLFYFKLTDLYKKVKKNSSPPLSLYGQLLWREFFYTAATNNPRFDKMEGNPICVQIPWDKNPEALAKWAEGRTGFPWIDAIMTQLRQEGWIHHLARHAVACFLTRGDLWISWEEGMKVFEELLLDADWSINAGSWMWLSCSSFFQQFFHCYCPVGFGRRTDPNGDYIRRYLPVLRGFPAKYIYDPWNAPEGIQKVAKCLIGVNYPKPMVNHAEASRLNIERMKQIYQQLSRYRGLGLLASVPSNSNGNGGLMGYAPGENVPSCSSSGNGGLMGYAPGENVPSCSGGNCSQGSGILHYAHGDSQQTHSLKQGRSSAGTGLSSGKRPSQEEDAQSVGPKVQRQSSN

The chains behind the UniProt entries cited, without tags or fusion partners.
UniProt O35973: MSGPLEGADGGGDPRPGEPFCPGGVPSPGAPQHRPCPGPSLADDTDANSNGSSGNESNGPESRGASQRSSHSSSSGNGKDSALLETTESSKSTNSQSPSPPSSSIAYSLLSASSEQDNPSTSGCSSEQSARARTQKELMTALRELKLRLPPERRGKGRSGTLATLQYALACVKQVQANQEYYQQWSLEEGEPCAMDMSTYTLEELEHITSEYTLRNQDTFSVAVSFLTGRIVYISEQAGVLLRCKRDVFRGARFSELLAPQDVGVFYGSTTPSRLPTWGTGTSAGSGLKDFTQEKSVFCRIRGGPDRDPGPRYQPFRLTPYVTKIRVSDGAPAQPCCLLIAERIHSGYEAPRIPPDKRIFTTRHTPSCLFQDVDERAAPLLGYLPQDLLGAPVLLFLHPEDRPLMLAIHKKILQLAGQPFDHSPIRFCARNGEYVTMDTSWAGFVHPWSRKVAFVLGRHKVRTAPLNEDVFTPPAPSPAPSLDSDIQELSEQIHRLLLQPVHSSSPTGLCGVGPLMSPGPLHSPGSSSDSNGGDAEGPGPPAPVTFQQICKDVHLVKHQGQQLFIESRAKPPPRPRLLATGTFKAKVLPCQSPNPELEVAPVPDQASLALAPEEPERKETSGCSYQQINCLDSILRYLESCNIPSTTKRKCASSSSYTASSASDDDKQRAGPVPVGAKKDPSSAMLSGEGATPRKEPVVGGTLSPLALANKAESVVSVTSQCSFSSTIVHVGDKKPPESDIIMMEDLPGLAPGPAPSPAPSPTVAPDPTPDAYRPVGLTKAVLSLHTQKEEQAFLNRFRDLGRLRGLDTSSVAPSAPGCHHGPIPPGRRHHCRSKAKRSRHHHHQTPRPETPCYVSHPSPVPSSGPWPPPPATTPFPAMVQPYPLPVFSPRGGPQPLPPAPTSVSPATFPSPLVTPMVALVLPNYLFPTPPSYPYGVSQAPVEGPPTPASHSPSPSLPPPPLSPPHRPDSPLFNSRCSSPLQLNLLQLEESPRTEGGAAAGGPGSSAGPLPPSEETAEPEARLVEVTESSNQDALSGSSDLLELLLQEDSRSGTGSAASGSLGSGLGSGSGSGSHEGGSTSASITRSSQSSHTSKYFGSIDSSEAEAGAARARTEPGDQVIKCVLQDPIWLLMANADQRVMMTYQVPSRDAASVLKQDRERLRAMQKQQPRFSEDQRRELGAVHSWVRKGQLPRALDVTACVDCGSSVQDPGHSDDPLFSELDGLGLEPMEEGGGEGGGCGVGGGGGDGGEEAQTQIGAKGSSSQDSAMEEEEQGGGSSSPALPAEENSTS

CRY1 R109Q (mouse) = target: T2, CRY1 R109Q (mouse) (UniProt P97784); assay: as above
T2 sequence: T1 sequence with R109Q

## PER1 (from UniProt O35973 1-1291)
[1]
  binding: binds
CRY1 R109Q (mouse)
  binding: binds

From article PMC4157330, “Molecular assembly of the period-cryptochrome circadian transcriptional repressor complex” (eLife, 2014)
